# Source: the supplement of paper PMC3334620
# The full ranking holds about 33,000 sequences; the median of “E-score (-0.5 to 0.5)” is about -0.0034, and the highest 2% start at about 0.25. This is one part of the list.
# Target: T1, Yap3 (UniProt P38749)
# T1 sequence: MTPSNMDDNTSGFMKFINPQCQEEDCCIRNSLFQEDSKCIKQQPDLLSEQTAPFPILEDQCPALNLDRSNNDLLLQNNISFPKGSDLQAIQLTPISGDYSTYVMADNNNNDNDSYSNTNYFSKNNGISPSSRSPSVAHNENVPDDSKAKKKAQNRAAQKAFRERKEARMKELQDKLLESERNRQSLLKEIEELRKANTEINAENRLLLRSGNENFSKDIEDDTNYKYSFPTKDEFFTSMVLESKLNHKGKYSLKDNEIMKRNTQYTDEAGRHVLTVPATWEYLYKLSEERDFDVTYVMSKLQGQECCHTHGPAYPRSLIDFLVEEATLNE
# Experiment: PBM E-score (8-mer binding enrichment) (E-score (-0.5 to 0.5)); higher = stronger / more preferred TF binding
# Conditions: protein concentration: 100 nM; construct: GST-full length
# Description: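 Universal 'all 10-mer' protein binding microarrays (Agilent AMADID 015681) probed with GST-tagged S. cerevisiae TFs (full-length or DBD) made by in vitro transcription/translation (PURExpress), about 100-200 nM. Bound TF was detected with fluorescent anti-GST. Each ungapped 8-mer (which stands for itself and its reverse complement) is scored by the PBM enrichment score (E-score), a modified Wilcoxon-Mann-Whitney statistic from -0.5 to +0.5, computed with the Universal PBM Analysis Suite. Scale: above 0.35 generally sequence-specific binding.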
row,Sequence,PBM E-score
1,CATTCTGG,-0.153
2,CTCTAACA,0.0178
3,AAAGGTTA,0.151
4,ACCGCCGC,-0.0309
5,ATTAGCAA,0.223
6,AAAAGCAG,0.0262
7,GGTGATAC,-0.0272
8,TATCGTAA,0.182
9,ACCGCGTC,0.0345
10,GCGAAACC,0.165
11,ACGGGTAA,0.00851
12,CAGCTTGG,0.0808
13,GCATGGCA,-0.00214
14,CACCGCAC,-0.163
15,CCGAGAGC,-0.214
16,CTAACCTC,-0.0994
17,GAGGCCCC,-0.356
18,AGGCCCAT,-0.224
19,AAAGGAAC,0.122
20,GCGCCCAA,-0.0804
21,TCTATAGA,-0.23
22,CTGCGTAC,-0.181
23,CTGGCACC,-0.221
24,CCCAAGCC,-0.221
25,AATCGATT,0.179

row,Sequence,PBM E-score
1,CAGCCACA,-0.00717
2,GGGGGCGA,-0.29
3,CATGAACG,-0.134
4,AGTCTCAC,-0.0421
5,ACGGGAGC,-0.0922
6,CACAGCAG,-0.211
7,ATAAGGAC,0.0651
8,CAACGGTA,-0.108
9,ACACGTGC,0.0266
10,TATCTTAA,0.134
11,ATTATCAC,0.282
12,AATACGTA,0.296
13,CCAGATGA,-0.0937
14,TAGGTCCA,-0.0617
15,CGAGTTAC,0.11
16,GCGAAACA,0.158
17,ACCATTGC,0.00672
18,GGTGTTAA,0.0307
19,GCCGGTCA,0.0221
20,ATCATGCA,0.123
21,CTCAATTC,0.0176
22,CTCACGAG,-0.168
23,AGAGGTTC,0.104
24,AGAACCAC,-0.0844
25,ACGATCGT,0.00244

row,Sequence,PBM E-score
1,GTGTGTAA,0.136
2,CTGCGCAC,-0.0182
3,AAGGCCAT,0.0921
4,GTGGGGAA,0.0765
5,CCTCTTGA,-0.0262
6,GGCCTGTA,-0.0898
7,ACTACATC,0.145
8,CTCGTCAC,0.0189
9,ATATACAA,0.322
10,GATCACAA,0.141
11,TATCAAAA,0.23
12,CCAAGCAC,-0.0266
13,GCCCGAGA,-0.0118
14,CAACTTTA,0.0997
15,GAAACGGC,0.0838
16,GGACGAAC,-0.00251
17,CCGAATAC,0.125
18,AAATAATG,0.24
19,CGTTGTAA,0.0119
20,ACCCTGGC,-0.13
21,GTAAGATA,0.228
22,CACATTGA,0.16
23,ATATGGTA,0.234
24,AACGTAGT,-0.0878
25,GCTAAGCA,-0.143

row,Sequence,PBM E-score
1,ACCCCAAA,-0.0012
2,CCTAAATA,-0.122
3,AGCACCTC,-0.111
4,CATTCCGA,0.24
5,CTGATAGC,-0.16
6,GGCTCATA,0.082
7,TACGACGA,0.141
8,CAAATCAG,0.0568
9,GGGGCCCA,-0.339
10,CGCATCAA,0.105
11,AAAATGGT,0.214
12,CTCCCAAA,0.0555
13,AAGATCTG,-0.0415
14,AAACAAAC,0.181
15,AACAAGGG,-0.0929
16,ATATTTCA,0.197
17,ATTGACCC,0.0651
18,ATAGGTGG,-0.0769
19,ACTTAAGG,0.0987
20,ACGGCGCT,-0.187
21,ACTCAACG,-0.0625
22,TATCCATA,0.217
23,GCCGCATA,0.115
24,CCTGCAGC,-0.12
25,CCGTTACA,0.166

# 6 entries from above in a different format.
row | Sequence | PBM E-score
14 | CACCGCAC | -0.163
15 | CCGAGAGC | -0.214
16 | CTAACCTC | -0.0994
17 | GAGGCCCC | -0.356
18 | AGGCCCAT | -0.224
19 | AAAGGAAC | 0.122

# (continued)

row,Sequence,PBM E-score
1,AAACCGTG,-0.0242
2,ACTTTTGG,0.123
3,TATCGGGA,0.0757
4,AGTTAGTG,0.133
5,AAATAGAT,0.193
6,TGCCAACA,-0.036
7,AAATACCG,0.143
8,AAGAGCTG,-0.0831
9,CACGTCCC,-0.138
10,AGGTTGAA,0.0605
11,TGTAGGAA,0.0409
12,ACATCCCT,0.00758
13,ATGTCCTA,-0.0602
14,AGCAGTCA,-0.107
15,CCGAAATA,0.12
16,CCTGTTTC,-0.0337
17,ATTGAAAG,0.143
18,CGCCACAG,-0.157
19,TTATAGAA,0.00865
20,AGGCCCAA,-0.0375
21,CTCGTAGA,-0.244
22,AGCTTACA,0.0995
23,CGATTCCG,-0.102
24,AAACCAGC,-0.0362
25,GAAGTGGA,-0.0711

row,Sequence,PBM E-score
1,TAGCGGCA,-0.117
2,GGGAGGAA,-0.13
3,ATAAGCAC,0.0902
4,CATATAGG,-0.0735
5,TACTGACA,0.222
6,CTCTATAA,0.0647
7,ACTGTGAT,0.0589
8,ACCGGCGA,0.0051
9,GGCCAATA,0.034
10,ACATCATC,0.174
11,CTGGGTGC,-0.276
12,AAACTATC,0.0222
13,ACCGTACA,0.0667
14,GAAGATGA,0.00217
15,GAGAGCTA,0.00545
16,AACGACGA,0.0497
17,CTGACTAC,-0.0607
18,ACTAAACG,0.111
19,GTACGCCA,-0.112
20,GTGATCGA,0.282
21,CGGTCTTC,-0.139
22,GGAGTATA,0.0361
23,CCGGACAA,-0.00432
24,AACGCGGC,0.0716
25,GACCTCCA,-0.225

# Part of the list above, with tabs.
row	Sequence	PBM E-score
8	CAAATCAG	0.0568
10	AGGTTGAA	0.0605

# The list goes on:

row,Sequence,PBM E-score
1,TCCGGCGA,0.0592
2,GTCCCTTA,0.179
3,TGGTGCAA,0.0067
4,ATTGGCCA,0.0449
5,GGAAAGCC,-0.0527
6,ATGAATGA,0.106
7,CCCATGAG,-0.0304
8,GTTCTGGA,0.0684
9,AATTTGGT,0.173
10,ATGCTCCG,-0.142
11,ACCACCCA,-0.0418
12,AGACTTAC,-0.0295
13,TCAAGGAA,-0.0142
14,TCCCGAAA,0.0359
15,AATCGCCA,-0.0296
16,AGTGGTAT,0.0856
17,ACAAGTAT,0.184
18,AAGAGTGC,-0.0219
19,ACACAACA,-0.0291
20,AATGTTTC,0.126
21,AATGGATG,0.123
22,ACAGGTAA,0.036
